The text below walks through data of publication PMC10080907.

The chains behind the UniProt entries cited, without tags or fusion partners. Where a name states a change or a piece, a line headed by the entry shows the natural chain unless it says otherwise.
UniProt I7MFN1: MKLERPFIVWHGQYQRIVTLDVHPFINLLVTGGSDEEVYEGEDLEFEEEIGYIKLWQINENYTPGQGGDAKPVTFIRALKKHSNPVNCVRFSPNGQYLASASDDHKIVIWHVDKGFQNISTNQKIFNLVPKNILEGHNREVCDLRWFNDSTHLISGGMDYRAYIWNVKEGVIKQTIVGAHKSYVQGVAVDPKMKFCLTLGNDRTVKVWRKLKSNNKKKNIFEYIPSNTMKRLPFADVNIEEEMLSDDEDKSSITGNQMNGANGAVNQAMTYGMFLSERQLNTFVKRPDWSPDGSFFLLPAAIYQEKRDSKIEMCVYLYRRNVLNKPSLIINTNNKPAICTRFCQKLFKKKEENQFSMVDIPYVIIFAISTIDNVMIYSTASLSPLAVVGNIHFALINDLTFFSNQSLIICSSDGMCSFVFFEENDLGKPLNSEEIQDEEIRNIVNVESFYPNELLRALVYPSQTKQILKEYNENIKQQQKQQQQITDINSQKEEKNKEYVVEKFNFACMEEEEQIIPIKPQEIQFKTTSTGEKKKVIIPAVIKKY
UniProt I7M490: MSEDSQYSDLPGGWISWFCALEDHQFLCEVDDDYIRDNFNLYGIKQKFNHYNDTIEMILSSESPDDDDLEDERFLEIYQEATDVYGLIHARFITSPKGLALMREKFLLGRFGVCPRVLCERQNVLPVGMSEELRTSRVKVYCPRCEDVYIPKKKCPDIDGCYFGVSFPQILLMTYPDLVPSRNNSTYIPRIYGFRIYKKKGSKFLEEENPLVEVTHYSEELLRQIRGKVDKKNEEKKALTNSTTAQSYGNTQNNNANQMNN
UniProt Q24HK6: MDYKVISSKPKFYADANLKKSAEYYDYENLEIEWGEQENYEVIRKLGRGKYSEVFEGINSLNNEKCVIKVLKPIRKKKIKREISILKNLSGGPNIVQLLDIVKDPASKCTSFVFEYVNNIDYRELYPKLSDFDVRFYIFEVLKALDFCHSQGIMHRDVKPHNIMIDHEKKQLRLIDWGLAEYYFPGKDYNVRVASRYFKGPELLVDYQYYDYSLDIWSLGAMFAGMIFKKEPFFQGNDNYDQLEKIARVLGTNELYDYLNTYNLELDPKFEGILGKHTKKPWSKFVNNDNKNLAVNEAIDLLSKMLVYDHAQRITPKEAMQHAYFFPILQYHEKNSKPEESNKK
UniProt Q229R6: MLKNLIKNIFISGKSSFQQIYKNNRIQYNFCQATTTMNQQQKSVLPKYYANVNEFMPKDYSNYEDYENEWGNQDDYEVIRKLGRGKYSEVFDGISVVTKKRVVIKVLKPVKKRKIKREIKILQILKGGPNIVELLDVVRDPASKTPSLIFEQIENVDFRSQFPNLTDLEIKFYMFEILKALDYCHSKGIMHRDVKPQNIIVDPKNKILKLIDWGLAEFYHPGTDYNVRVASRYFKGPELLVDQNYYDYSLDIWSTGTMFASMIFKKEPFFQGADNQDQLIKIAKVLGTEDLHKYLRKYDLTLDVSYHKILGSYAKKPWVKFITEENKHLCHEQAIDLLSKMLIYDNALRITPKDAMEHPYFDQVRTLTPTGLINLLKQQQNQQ

No constants are given. Whether binding was seen depends on the method and setting. In cells and extracts the contact can be indirect. Here binding means that the protein was enriched with, or labelled near, the bait; the list need not be complete.

This test addresses Cac2^Tt-FZZ (Tetrahymena thermophila) (UniProt I7MFN1). The test can be described thus: affinity purification with mass spectrometry; tandem affinity purification of the FZZ-tagged bait from Benzonase-treated whole cell extracts of growing Tetrahymena (IgG-Sepharose 4 h at 4 °C, TEV protease overnight, then M2 agarose); SAINTexpress, FDR ≤ 0.01 against untagged wildtype cells.
On to “CSKB1 (TTHERM_00780530, putative regulatory beta subunit of Casein kinase II) (from UniProt I7M490)”, for which the binding result is “binds”. The result for “TTHERM_01000180 (putative Casein kinase II subunit, similar to budding yeast CSKA2) (from UniProt Q24HK6)” reads “binds”. Next, “TTHERM_01345800 (putative Casein kinase II subunit, similar to budding yeast CSKA1) (from UniProt Q229R6)”: “binds”.
